Assay results: PubChem BioAssay AID624256 (NMMLSC, 2012)
The whole screen tested about 360,000 compounds, of which about 3,700 (1%) were called active. Only results without a clear call are listed here; the source files them as inconclusive.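 Rule for the calls: active = normalized GFP-positive differentiation at or above the plate's own cutoff, the solvent-only control mean plus 3 SD; inconclusive = no clear call, values can overlap the other calls; inactive = the rest.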

assay: induction of myeloid progenitor differentiation, primary screen, cell-based, flow cytometry, MLPCN library (AID 624256); settings: ER-HoxA9 myeloid progenitors, lysozyme-GFP differentiation, at 10 µM

Structure (SMILES)	outcome
O=[N+]([O-])c1ccc2c(c1)C=Nc1ccccc1O2	inconclusive
O=[N+]([O-])c1cc([N+](=O)[O-])c(NCC2CCS(=O)(=O)C2)c([N+](=O)[O-])c1 (configuration not stated)	inconclusive
